# Source: PubChem BioAssay AID504834 (National Center for Advancing Translational Sciences (NCATS), 2011)
# Hit rate of the full screen: of about 320,000 compounds, about 22,000 (6.9%) were called active. The shares of active, inactive and inconclusive entries below differ from those in the screen. Calls come from the whole dose curve; as a rule, active = well fitted inhibition curve with a large enough effect; inconclusive = small, poorly fitted or top-dose-only effect, or another doubt; inactive = no such curve, though single readings can be large or run the other way. Potencies of inconclusive entries are doubtful fits and often do not repeat.
# Assay: Primary qHTS for delayed death inhibitors of the malarial parasite plastid, 96 hour incubation
# Conditions: P. falciparum luciferase reporter growth; series mostly up to 28.7 µM
# How it was run: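 P. falciparum expressing integrated firefly luciferase, in erythrocytes at 2% hematocrit, 0.05% parasitemia, incubated with compounds 96 h at 37 C, 5% CO2. Growth inhibition read as loss of luminescence; two-generation exposure targets delayed-death apicoplast inhibitors.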
# Potency is the fitted concentration of half-maximal effect.
row,Structure (SMILES),Potency
1,Clc1ccc(-c2nnc(-c3cccnc3)o2)cc1,"inconclusive: 16.5 µM [inhibitor, partial curve, poor fit]"
2,O=C(Nc1nnc(-c2ccccc2F)s1)c1ccccc1F,"inconclusive: 10.4 µM [inhibitor, partial curve]"
3,CCOc1ccc(CCNC(=O)c2ccc(CNS(=O)(=O)c3ccccc3)cc2)cc1OCC,active: 8.28 µM
4,Cc1ccccc1-c1nc(CN2CCCC(C(=O)NCc3cccnc3)C2)c(C)o1 (stereo not given),inactive
5,O=C(O[C@@H]1OC2COC(=O)c3cc(O)c(O)c(O)c3-c3c(cc(O)c(O)c3O)C(=O)O[C@@H]([C@H]1O)[C@@H]2O)c1cc(O)c(O)c(O)c1,inactive
6,COc1ccc(NC(=O)Nc2ccc3c(c2)CCC3)cc1OC,"inconclusive: 14.7 µM [inhibitor, single point]"
7,COc1c(C)cc(C(=O)C2CCCN(Cc3cccc(C)n3)C2)cc1C (stereo not given),inactive
8,O=C(NCC(c1cccs1)N1CCOCC1)c1cccnc1 (stereo not given),"inconclusive: 4.15 µM [inhibitor, partial curve, poor fit]"
9,COc1ccc2c(c1)Sc1ccccc1N2,"inconclusive: 13.1 µM [inhibitor, partial curve, poor fit]"
10,COc1ccc(C(=O)COC(=O)CN2CC(=O)Oc3ccccc32)cc1Br,"inconclusive: 1.47 µM [inhibitor, partial curve]"
11,CC1=C(C(N)=O)C(c2ccc(Cl)cc2)n2nc(CCCO)nc2N1 (stereo not given),"inconclusive: 6.57 µM [inhibitor, partial curve]"
12,Cc1ccc(-n2c(O)c(/C=N/NC(=O)c3ccncc3)c(=O)[nH]c2=O)cc1C,inactive
13,O=S(=O)(c1ccccc1)c1nc(-c2ccc(F)cc2)oc1NCC1CCCO1 (stereo not given),"inconclusive: 5.86 µM [inhibitor, partial curve, poor fit]"
14,O=C(Nc1ccccn1)NC(C(F)(F)F)C(F)(F)F,"inconclusive: 2.62 µM [inhibitor, single point]"
15,Cc1csc(N)n1,inactive
16,Cc1ccc(C(=O)N(CC(=O)NC2CCCC2)c2cccc(F)c2)s1,inactive
17,C#CCNC(=O)C1=C[C@@H](C(C)(C)C)C[C@@H](OCc2ccc(CO)cc2)O1,"inconclusive: 4.15 µM [inhibitor, full curve]"
18,CCN(CC)c1nc(C)c(C(=S)Nc2cc([N+](=O)[O-])ccc2Cl)s1,"inconclusive: 18.5 µM [inhibitor, single point]"
19,CCOc1ccccc1CNC(=O)c1ccccc1NC(=O)C1=CSCCO1,"inconclusive: 11.7 µM [inhibitor, partial curve, poor fit]"
20,O=C(CCn1ccc2cc(S(=O)(=O)N3CCCC3)ccc21)NCc1ccccc1F,"inconclusive: 1.85 µM [inhibitor, partial curve, poor fit]"
21,CN(Cc1cccc2cnccc12)C(=O)c1cc(COc2ccc(F)cc2Cl)on1,inactive
22,Cn1c(CC(=O)Nc2ccccc2)n[nH]c1=S,"inconclusive: 13.1 µM [inhibitor, single point]"
23,CCCCN(CCCC)c1nc2ccccc2nc1C(C#N)C(=O)NCCCOC (stereo not given),"inconclusive: 18.5 µM [inhibitor, single point]"

row,Structure (SMILES),Potency
1,CSCc1cccc(C(=O)OC(C)C(=O)Nc2c(C)n(C)n(-c3ccccc3)c2=O)c1 (stereo not given),"inconclusive: 1.85 µM [inhibitor, full curve]"
2,CN(C)CCNc1nc2sc3c(c2c(=O)n1-c1ccc(F)cc1)CCCCC3,"inconclusive: 10.4 µM [inhibitor, partial curve]"
3,CN(C)c1cccc(C(=O)Nc2cccc(F)c2)c1,inactive
4,CCn1c2ccccc2c2cc(N=C3SC(CC(=O)Nc4ccccc4)C(=O)N3C)ccc21 (stereo not given),"inconclusive: 10.4 µM [inhibitor, single point]"
5,CCCSCCCNC(=O)Cn1c(=O)c2cccn2c2ccccc21,"inconclusive: 0.828 µM [inhibitor, full curve, poor fit]"
6,CC(=O)N1CCOc2ccc(S(=O)(=O)N3CCN(c4cccc(C(F)(F)F)c4)CC3)cc21,"inconclusive: 0.928 µM [inhibitor, full curve, poor fit]"
7,COc1ccc(NC(=O)NNC(=O)C(C)Oc2ccc3ccccc3c2)cc1OC (stereo not given),inactive
8,N#CC(Cc1ccccc1)(Cc1ccccc1)C(=O)NN,"inconclusive: 13.1 µM [inhibitor, single point]"
9,S=c1[nH]nc(-c2cc(-c3ccccc3)n[nH]2)n1/N=C/C(Br)=C/c1ccccc1,active: 9.28 µM
10,C=CCn1cc(-c2ccc(Cl)cc2)cc(C#N)c1=O,inactive
11,Cc1ccc(C)c(NC(=S)N2CCN(S(=O)(=O)c3ccccc3)CC2)c1,"inconclusive: 18.5 µM [inhibitor, single point]"
12,N#Cc1ccccc1CSC1=NCCS1,"inconclusive: 14.7 µM [inhibitor, partial curve]"
13,Cc1ccc(-n2nnnc2SCC(=O)N2CCNC2=O)cc1C,"inconclusive: 9.28 µM [inhibitor, single point]"
14,COC(=O)CN1C(=S)N(c2ccc(F)cc2)C(=O)C1CC(=O)Nc1ccc(F)cc1 (stereo not given),"inconclusive: 1.04 µM [inhibitor, full curve]"
15,COc1ccccc1CN(Cc1cc2cc(C)ccc2[nH]c1=O)Cc1nnnn1CC1CCCO1 (stereo not given),active: 10.4 µM
16,COc1ccc(NC(=O)c2cccnc2Nc2ccc(OC)cc2)cc1,"inconclusive: 1.85 µM [inhibitor, partial curve, poor fit]"
17,CCCc1cc2c(=O)c(-c3ccc4c(c3)OCCO4)c(C)oc2cc1OS(C)(=O)=O,"inconclusive: 10.4 µM [inhibitor, single point]"
18,Cc1nc(-c2ccccc2)sc1C(=O)/C=C/c1ccccc1,"inconclusive: 18.5 µM [inhibitor, single point]"
19,Cc1ccc(N(CCC#N)C(=O)COC(=O)c2ccccn2)cc1,inactive
20,Cc1sc2ncnc(NCc3cccs3)c2c1C,inactive
21,O=c1c2oc3ccccc3c2[nH]c(=S)n1-c1ccccc1,inactive
22,Cc1ccc(C(=O)Nc2cccc(-c3ccc(N4CCOCC4)nn3)c2)cc1[N+](=O)[O-],"inconclusive: 3.29 µM [inhibitor, single point]"

# 3 of the compounds above, with bars between the fields.
row | Structure (SMILES) | Potency
13 | Cc1ccc(-n2nnnc2SCC(=O)N2CCNC2=O)cc1C | inconclusive: 9.28 µM [inhibitor, single point]
14 | COC(=O)CN1C(=S)N(c2ccc(F)cc2)C(=O)C1CC(=O)Nc1ccc(F)cc1 (stereo not given) | inconclusive: 1.04 µM [inhibitor, full curve]
15 | COc1ccccc1CN(Cc1cc2cc(C)ccc2[nH]c1=O)Cc1nnnn1CC1CCCO1 (stereo not given) | active: 10.4 µM
